The assay deals with CXCL12, endogenous, in mouse plasma (mouse) (UniProt P40224). Briefly: hybrid sandwich ELISA on plasma (capture anti-CXCL12, detection anti-HMGB1). On the technique in general: ELISA stands for enzyme-linked immunosorbent assay.

By UniProt entry, the sequences of proteins in these tests, tags left out. Residues count along the entry.
UniProt P40224, residues 22-89: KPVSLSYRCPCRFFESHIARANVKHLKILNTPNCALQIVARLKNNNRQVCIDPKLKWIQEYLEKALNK
UniProt P63158: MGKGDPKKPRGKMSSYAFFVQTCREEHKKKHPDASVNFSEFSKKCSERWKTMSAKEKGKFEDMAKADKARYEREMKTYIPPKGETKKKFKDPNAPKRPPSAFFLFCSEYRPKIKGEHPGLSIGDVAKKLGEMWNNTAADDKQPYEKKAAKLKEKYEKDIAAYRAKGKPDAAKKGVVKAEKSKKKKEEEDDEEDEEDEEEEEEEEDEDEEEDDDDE

These are yes or no findings as the source states them, for the method shown. Some binding calls cover weakened binding; strength is not graded here.

On to “HMGB1 (High Mobility Group Box 1), endogenous, in mouse plasma (from UniProt P63158 1-215)”, for which the binding entry is “binds”.
